Source: publication PMC7144586
These are yes or no findings as the source states them, for the method shown. In cells and extracts the contact can be indirect. Some entries that bind do so weakly or less than the wild type. For some assays here: Where a sequence is shown, tags or fusion partners need not be part of it.

By UniProt entry, the sequences of proteins in these tests, tags left out.
UniProt P04899: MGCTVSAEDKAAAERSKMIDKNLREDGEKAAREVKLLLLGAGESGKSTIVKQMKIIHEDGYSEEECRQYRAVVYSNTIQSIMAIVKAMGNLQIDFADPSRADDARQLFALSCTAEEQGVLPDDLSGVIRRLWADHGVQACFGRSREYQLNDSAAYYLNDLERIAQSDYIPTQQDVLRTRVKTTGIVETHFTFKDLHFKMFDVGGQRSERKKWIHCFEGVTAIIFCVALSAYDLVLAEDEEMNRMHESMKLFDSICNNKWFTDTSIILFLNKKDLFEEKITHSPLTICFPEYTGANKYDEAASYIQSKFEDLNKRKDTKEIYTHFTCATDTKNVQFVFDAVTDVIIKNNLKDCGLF

T1: ELMO2-Flag (UniProt Q96JJ3)
T1 sequence: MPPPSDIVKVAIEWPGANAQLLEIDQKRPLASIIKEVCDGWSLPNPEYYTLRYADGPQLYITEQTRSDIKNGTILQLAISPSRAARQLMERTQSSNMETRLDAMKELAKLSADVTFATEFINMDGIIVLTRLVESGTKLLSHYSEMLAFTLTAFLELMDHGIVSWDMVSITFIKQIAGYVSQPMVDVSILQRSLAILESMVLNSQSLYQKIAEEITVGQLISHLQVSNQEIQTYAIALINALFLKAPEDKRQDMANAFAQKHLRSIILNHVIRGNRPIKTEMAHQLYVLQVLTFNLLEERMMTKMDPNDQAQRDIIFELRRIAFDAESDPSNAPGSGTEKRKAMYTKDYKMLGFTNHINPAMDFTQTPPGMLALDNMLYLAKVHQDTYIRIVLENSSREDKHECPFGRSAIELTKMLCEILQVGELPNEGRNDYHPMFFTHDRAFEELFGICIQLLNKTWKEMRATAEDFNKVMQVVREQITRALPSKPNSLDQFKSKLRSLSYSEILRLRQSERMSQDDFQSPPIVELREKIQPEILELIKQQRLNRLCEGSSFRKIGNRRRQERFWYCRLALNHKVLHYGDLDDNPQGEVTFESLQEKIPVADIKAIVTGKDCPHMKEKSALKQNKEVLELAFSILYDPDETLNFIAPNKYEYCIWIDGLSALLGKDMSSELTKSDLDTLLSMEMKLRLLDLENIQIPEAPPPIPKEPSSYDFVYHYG

B1: ELMO2 (endogenous) (protein, UniProt Q96JJ3 1-720)
chain: T1 sequence

Columns and labels:
ELMO2-Flag = biological target: T1, ELMO2-Flag; test: co-IP; lysates of transfected PANC-1 cells (RIPA lysis buffer with PMSF) incubated overnight with monoclonal anti-Flag antibody, captured on protein A/G magnetic beads, eluted by boiling, blotted with anti-Gαi2 and anti-ELMO2; control rabbit IgG in parallel
Gαi2-Flag = Gαi2-Flag (UniProt P04899); test: as above

| Molecule | binding (ELMO2-Flag) | binding (Gαi2-Flag) |
| --- | --- | --- |
| Gαi2 (endogenous) (from UniProt P04899 1-355) | binds |  |
| B1 |  | binds |
